Assay results as given in the supplement of paper PMC10849652.
Some of the results follow.

By UniProt entry, the sequences of proteins in these tests, tags left out. Where a name states a change or a piece, a line headed by the entry shows the natural chain unless it says otherwise.
UniProt O15127: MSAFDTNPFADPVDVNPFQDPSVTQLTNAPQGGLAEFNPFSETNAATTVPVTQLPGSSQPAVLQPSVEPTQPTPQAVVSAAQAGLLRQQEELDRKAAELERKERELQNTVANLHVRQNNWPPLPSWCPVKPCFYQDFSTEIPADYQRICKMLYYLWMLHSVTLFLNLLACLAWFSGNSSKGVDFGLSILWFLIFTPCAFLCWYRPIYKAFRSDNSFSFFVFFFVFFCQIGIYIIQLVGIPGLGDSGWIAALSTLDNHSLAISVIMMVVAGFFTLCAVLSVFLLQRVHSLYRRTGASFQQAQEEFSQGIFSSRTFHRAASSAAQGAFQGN
UniProt P25815: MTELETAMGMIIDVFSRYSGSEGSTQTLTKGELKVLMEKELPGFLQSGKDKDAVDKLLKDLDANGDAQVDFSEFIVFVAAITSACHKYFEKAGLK
UniProt Q99719: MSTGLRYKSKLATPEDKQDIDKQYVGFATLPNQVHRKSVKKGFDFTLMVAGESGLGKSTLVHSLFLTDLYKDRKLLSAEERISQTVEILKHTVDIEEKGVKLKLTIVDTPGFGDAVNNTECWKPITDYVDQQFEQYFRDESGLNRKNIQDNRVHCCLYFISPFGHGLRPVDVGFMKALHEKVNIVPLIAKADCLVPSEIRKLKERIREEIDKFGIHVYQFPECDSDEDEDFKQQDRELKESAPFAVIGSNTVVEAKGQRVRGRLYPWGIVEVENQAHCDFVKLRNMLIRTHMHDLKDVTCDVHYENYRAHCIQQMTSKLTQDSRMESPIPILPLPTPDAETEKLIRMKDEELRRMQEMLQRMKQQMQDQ
UniProt Q9GZR1: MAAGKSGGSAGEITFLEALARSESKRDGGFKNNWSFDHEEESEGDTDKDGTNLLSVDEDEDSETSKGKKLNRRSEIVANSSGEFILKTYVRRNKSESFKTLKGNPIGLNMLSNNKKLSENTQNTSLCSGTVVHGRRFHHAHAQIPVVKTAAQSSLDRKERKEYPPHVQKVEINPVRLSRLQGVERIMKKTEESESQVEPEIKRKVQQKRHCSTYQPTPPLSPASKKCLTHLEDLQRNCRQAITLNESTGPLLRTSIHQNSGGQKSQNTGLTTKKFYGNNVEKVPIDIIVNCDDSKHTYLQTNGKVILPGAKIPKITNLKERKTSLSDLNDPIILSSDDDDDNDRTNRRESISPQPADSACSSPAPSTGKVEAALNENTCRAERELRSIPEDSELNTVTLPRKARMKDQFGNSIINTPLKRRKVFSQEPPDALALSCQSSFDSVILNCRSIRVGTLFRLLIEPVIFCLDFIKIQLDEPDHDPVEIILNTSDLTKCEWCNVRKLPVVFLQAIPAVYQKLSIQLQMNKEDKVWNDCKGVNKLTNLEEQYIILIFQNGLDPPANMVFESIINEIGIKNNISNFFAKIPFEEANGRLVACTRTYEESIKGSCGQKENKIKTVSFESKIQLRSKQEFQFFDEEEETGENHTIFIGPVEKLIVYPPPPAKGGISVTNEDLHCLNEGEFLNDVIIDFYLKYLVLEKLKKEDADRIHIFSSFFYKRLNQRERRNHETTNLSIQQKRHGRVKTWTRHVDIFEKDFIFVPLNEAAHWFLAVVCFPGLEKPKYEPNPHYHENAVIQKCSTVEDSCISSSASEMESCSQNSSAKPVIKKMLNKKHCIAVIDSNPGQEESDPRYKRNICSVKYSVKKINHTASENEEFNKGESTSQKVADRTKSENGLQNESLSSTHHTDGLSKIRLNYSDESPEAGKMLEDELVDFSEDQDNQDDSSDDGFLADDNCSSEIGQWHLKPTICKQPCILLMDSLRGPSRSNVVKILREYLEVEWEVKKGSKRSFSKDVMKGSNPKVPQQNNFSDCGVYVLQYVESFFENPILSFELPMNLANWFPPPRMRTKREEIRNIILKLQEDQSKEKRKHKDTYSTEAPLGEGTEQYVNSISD
UniProt Q5PRF9: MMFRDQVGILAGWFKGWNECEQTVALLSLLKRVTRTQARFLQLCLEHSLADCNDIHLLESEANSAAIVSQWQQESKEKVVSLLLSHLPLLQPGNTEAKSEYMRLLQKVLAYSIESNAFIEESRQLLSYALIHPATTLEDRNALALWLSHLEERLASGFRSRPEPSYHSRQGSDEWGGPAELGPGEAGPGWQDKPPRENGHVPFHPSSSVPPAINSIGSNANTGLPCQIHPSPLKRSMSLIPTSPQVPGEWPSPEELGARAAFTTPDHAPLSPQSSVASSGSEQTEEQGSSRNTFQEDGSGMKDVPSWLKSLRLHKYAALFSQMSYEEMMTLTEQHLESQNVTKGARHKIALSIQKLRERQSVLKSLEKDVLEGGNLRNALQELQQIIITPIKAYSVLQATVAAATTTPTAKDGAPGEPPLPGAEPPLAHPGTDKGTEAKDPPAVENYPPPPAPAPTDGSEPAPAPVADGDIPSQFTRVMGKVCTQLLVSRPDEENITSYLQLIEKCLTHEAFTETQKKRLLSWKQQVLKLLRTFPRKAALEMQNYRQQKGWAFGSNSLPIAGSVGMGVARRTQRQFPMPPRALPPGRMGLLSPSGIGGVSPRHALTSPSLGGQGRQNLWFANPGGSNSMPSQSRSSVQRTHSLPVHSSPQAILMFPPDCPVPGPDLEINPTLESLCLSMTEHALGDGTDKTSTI
UniProt O14828: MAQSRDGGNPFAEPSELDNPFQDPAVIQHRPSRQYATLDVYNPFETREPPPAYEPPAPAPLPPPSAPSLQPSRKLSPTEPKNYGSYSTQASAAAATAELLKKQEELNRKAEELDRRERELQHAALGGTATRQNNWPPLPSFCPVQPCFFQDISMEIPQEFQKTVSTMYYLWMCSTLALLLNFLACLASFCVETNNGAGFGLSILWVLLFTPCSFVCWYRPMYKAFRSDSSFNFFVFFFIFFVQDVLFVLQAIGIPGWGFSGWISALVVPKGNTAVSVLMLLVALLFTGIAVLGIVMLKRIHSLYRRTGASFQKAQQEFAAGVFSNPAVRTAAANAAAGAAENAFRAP
UniProt P49903: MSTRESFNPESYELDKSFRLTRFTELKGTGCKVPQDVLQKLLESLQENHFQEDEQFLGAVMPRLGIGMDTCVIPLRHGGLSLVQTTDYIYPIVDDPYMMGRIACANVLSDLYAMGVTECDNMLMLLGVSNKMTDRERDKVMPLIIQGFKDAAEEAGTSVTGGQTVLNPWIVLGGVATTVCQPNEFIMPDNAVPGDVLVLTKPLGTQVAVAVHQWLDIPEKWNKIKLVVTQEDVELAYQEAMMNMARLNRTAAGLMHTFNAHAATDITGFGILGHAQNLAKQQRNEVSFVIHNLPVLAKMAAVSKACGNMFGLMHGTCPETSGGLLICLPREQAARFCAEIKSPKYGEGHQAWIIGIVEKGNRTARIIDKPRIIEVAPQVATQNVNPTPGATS
UniProt Q14160: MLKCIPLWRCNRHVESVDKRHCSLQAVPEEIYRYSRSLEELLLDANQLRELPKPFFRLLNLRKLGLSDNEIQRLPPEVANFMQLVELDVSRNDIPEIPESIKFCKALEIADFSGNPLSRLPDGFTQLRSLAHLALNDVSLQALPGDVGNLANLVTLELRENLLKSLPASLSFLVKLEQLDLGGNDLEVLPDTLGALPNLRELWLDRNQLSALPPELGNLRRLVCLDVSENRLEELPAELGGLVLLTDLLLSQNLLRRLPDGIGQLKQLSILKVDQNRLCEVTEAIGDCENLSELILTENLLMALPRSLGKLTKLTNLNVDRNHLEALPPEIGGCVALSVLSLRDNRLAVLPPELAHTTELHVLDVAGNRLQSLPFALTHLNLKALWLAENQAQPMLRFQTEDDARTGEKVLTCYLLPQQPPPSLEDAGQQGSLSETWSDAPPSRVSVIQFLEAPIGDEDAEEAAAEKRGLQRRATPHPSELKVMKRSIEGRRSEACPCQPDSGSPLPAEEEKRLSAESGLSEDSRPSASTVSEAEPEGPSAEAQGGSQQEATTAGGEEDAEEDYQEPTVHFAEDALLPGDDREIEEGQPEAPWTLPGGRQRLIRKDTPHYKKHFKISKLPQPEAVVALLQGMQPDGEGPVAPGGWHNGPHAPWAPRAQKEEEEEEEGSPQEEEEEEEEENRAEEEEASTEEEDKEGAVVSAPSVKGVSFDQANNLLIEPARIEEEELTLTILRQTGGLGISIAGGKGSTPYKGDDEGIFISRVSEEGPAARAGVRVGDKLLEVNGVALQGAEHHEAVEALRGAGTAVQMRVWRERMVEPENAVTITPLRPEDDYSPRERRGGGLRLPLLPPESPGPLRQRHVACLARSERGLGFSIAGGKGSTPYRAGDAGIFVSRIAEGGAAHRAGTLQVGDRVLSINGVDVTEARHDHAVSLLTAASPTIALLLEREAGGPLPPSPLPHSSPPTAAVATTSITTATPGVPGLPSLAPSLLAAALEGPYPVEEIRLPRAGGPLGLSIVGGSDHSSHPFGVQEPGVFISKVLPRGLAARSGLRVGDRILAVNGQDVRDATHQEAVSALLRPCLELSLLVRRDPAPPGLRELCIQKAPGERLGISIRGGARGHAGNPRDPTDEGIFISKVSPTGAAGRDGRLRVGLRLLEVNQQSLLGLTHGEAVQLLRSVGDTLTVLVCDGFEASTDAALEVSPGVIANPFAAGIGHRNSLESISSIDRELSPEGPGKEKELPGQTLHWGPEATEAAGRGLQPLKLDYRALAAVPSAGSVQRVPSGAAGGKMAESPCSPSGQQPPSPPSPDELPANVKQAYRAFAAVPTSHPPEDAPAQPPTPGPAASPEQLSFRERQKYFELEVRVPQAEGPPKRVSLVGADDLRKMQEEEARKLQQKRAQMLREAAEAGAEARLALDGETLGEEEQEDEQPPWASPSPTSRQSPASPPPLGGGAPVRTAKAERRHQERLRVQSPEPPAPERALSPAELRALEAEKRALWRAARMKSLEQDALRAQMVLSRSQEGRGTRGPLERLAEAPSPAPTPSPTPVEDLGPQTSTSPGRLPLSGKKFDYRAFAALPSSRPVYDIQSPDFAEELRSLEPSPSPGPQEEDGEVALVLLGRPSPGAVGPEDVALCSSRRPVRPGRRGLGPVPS
UniProt Q9Y6Y8: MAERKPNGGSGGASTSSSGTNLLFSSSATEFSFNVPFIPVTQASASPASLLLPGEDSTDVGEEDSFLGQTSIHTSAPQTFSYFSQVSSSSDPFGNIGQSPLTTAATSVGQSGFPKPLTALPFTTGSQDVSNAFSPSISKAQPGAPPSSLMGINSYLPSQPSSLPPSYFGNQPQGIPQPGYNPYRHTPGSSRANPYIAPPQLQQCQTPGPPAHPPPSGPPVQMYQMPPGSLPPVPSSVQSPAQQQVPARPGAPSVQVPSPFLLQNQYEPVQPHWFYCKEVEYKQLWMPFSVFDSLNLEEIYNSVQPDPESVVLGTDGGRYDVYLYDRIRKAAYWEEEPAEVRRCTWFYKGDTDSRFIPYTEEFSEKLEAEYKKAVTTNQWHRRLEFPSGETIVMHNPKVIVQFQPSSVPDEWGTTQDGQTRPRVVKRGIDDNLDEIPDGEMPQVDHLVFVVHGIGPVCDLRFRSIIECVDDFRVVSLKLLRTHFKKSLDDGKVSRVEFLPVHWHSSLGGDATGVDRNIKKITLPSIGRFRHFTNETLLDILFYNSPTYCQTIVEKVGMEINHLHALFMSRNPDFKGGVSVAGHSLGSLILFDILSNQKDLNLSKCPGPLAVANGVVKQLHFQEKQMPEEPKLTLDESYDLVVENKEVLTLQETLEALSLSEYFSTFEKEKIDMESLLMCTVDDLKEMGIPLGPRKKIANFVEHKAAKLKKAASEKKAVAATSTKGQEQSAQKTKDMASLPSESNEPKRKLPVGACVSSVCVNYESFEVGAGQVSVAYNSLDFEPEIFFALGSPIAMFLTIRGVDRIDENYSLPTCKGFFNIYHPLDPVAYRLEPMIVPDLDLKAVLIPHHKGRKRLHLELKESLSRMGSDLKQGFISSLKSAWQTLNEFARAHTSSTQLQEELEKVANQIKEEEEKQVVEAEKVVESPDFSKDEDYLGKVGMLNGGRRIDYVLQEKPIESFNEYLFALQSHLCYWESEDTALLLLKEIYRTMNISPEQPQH
UniProt Q9NVA2: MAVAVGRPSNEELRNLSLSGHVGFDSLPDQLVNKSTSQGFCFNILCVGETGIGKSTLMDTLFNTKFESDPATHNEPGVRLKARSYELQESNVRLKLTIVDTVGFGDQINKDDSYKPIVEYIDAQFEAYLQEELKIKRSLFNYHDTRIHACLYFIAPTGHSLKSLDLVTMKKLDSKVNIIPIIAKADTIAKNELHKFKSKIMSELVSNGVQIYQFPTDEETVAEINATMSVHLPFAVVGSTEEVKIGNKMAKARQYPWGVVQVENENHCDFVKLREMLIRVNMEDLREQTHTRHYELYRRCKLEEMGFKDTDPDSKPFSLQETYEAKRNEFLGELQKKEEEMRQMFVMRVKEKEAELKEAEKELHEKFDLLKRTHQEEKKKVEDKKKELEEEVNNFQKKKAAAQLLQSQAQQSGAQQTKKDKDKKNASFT
UniProt O60613, whole entry, looked up: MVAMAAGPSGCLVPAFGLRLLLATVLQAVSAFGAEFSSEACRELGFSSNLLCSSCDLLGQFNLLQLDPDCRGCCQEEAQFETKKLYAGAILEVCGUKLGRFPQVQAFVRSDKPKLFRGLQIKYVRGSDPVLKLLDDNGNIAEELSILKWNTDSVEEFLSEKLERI

Experiments:
Test in all cases: log2 fold change, soluble protein after heating vs DMSO (PISA); higher = thermal stabilisation; K562 lysate, 10 uM; active = over 0.2 and 3.5 SD of the protein, either way, in both replicates (recomputed)
lapatinib = compound: CS(=O)(=O)CCNCc1ccc(-c2ccc3ncnc(Nc4ccc(OCc5cccc(F)c5)c(Cl)c4)c3c2)o1 [lapatinib]
Outline: (§1)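 K562 pellets were dounce-homogenised in PBS pH 7.4 containing 1 mM MgCl2, and the crude extract, at 1 mg/mL protein, was exposed to 10 μM compound for 30 min. Aliquots were heated for 3 min across 48°C-58°C, pooled, brought to 0.5% NP-40 at 4°C and spun at 21,000xg for 90 min, with the supernatant taken as soluble protein. TMTpro 16plex LC-MS/MS with equalised channel sums quantified that protein. Values are log-two fold changes in thermal stability relative to solvent controls, taken from duplicates.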

pictilisib = compound: CS(=O)(=O)N1CCN(Cc2cc3nc(-c4cccc5[nH]ncc45)nc(N4CCOCC4)c3s2)CC1 [pictilisib]
Outline: as §1

crizotinib = compound: C[C@@H](Oc1cc(-c2cnn(C3CCNCC3)c2)cnc1N)c1c(Cl)ccc(F)c1Cl [crizotinib]
Outline: as §1

[1] = compound: C[C@H](C1=CC=C(C=C1)C(=O)NC2=C3C=CNC3=NC=C2)N
Outline: as §1

duvelisib = compound: C[C@H](Nc1ncnc2nc[nH]c12)c1cc2cccc(Cl)c2c(=O)n1-c1ccccc1 [duvelisib]
Outline: as §1

gandotinib = compound: Cc1cc(Nc2cc(CN3CCOCC3)c3nc(C)c(Cc4ccc(Cl)cc4F)n3n2)n[nH]1 [gandotinib]
Outline: as §1

tozasertib = compound: Cc1cc(Nc2cc(N3CCN(C)CC3)nc(Sc3ccc(NC(=O)C4CC4)cc3)n2)n[nH]1 [tozasertib]
Outline: as §1

doramapimod = compound: Cc1ccc(-n2nc(C(C)(C)C)cc2NC(=O)Nc2ccc(OCCN3CCOCC3)c3ccccc23)cc1 [doramapimod]
Outline: as §1

bafetinib = compound: Cc1ccc(NC(=O)c2ccc(CN3CC[C@H](N(C)C)C3)c(C(F)(F)F)c2)cc1Nc1nccc(-c2cncnc2)n1 [bafetinib]
Outline: as §1

[2] = compound: Cc1cccc(CC(=O)N2CCc3c2ccc(-c2cn(C)c4ncnc(N)c24)c3F)n1
Outline: as §1

Target | log2 fold change (lapatinib) | log2 fold change (pictilisib) | log2 fold change (crizotinib) | log2 fold change [1] | log2 fold change (duvelisib) | log2 fold change (gandotinib) | log2 fold change (tozasertib) | log2 fold change (doramapimod) | log2 fold change (bafetinib) | log2 fold change [2]
SCAMP2 (UniProt O15127) | inactive: 0.018 | inactive: -0.005 | inactive: 0.073 | inactive: -0.076 | inactive: 0.078 | inactive: 0.016 | inactive: -0.001 | inactive: 0 | inactive: -0.076 | inactive: 0.006
S100P (UniProt P25815) | inactive: 0.075 | inactive: 0.045 | inactive: 0.082 | inactive: 0.217 | inactive: -0.021 | inactive: -0.11 | inactive: 0.024 | inactive: -0.025 | inactive: -0.049 | inactive: -0.104
SEPTIN5 (UniProt Q99719) | inactive: 0 | inactive: 0.034 | inactive: 0.001 | inactive: 0.018 | inactive: 0.033 | inactive: -0.014 | inactive: 0.029 | inactive: 0.023 | inactive: 0.106 | inactive: -0.053
SENP6 (UniProt Q9GZR1) | inactive: -0.032 | inactive: -0.022 | inactive: 0.011 | inactive: -0.004 | inactive: 0.031 | inactive: 0.039 | inactive: 0.028 | inactive: 0.01 | inactive: 0.034 | inactive: 0.049
SAMD4A (UniProt Q9UPU9) | inactive: 0.282 | inactive: 0.047 | inactive: -0.041 | inactive: -0.064 | inactive: -0.046 | inactive: -0.036 | inactive: 0.088 | inactive: 0.019 | inactive: -0.215 | inactive: 0.101
SELPLG isoform 2 (UniProt Q14242) | inactive: 0.089 | – | – | – | – | – | – | – | – | –
SAMD4B (UniProt Q5PRF9) | inactive: 0 | inactive: -0.015 | inactive: -0.017 | inactive: -0.1 | inactive: 0.045 | inactive: 0.002 | inactive: 0.048 | inactive: -0.001 | inactive: 0.011 | inactive: 0.1
SCAMP3 isoform 2 (UniProt O14828) | inactive: 0.043 | inactive: 0.115 | inactive: 0.096 | inactive: -0.209 | inactive: 0.004 | inactive: 0.089 | inactive: -0.123 | inactive: 0.035 | inactive: -0.139 | inactive: 0.183
SEC24D isoform 2 (UniProt O94855) | inactive: 0.016 | inactive: -0.03 | inactive: 0 | inactive: 0.031 | inactive: 0.017 | inactive: -0.02 | inactive: 0.005 | inactive: 0 | inactive: -0.026 | inactive: -0.019
SEPHS1 (UniProt P49903) | inactive: -0.01 | inactive: -0.015 | inactive: 0.017 | inactive: 0.009 | inactive: 0.012 | inactive: 0.009 | inactive: 0.004 | inactive: -0.015 | inactive: 0.032 | inactive: -0.042
SCRIB (UniProt Q14160) | inactive: -0.024 | inactive: -0.028 | inactive: -0.05 | inactive: 0.048 | inactive: 0.007 | inactive: 0.044 | inactive: 0.02 | inactive: 0.02 | inactive: -0.025 | inactive: 0.016
SCFD2 (UniProt Q8WU76) | inactive: -0.013 | inactive: -0.004 | inactive: -0.095 | inactive: -0.011 | inactive: 0.015 | inactive: -0.026 | inactive: 0.081 | inactive: -0.007 | inactive: 0.014 | inactive: 0.022
SEC61B (UniProt P60468) | inactive: 0.028 | inactive: 0.069 | inactive: 0.091 | inactive: -0.037 | inactive: 0.007 | inactive: 0.001 | inactive: 0.053 | inactive: 0.043 | inactive: 0.015 | inactive: 0.036
SAE1 (UniProt Q9UBE0) | inactive: -0.017 | inactive: 0.001 | inactive: 0.026 | inactive: 0.007 | inactive: -0.01 | inactive: -0.042 | inactive: -0.015 | inactive: -0.015 | inactive: 0.02 | inactive: -0.017
SCAMP3 (UniProt O14828) | inactive: 0.035 | inactive: -0.012 | inactive: 0.013 | inactive: -0.004 | inactive: -0.004 | inactive: 0.014 | inactive: 0.006 | inactive: -0.052 | inactive: 0.117 | inactive: -0.001
SDE2 (UniProt Q6IQ49) | inactive: 0.025 | inactive: 0.003 | inactive: 0.022 | inactive: -0.05 | inactive: 0.011 | inactive: 0.094 | inactive: 0.012 | inactive: 0.027 | inactive: -0.044 | inactive: 0.007

Complete entries as entered above. Values in the order: log2 fold change (lapatinib)	log2 fold change (pictilisib)	log2 fold change (crizotinib)	log2 fold change [1]	log2 fold change (duvelisib)	log2 fold change (gandotinib)	log2 fold change (tozasertib)	log2 fold change (doramapimod)	log2 fold change (bafetinib)	log2 fold change [2]
SCAMP2 (UniProt O15127) in the list: inactive: 0.018	inactive: -0.005	inactive: 0.073	inactive: -0.076	inactive: 0.078	inactive: 0.016	inactive: -0.001	inactive: 0	inactive: -0.076	inactive: 0.006
SEC61B (UniProt P60468) in the list: inactive: 0.028	inactive: 0.069	inactive: 0.091	inactive: -0.037	inactive: 0.007	inactive: 0.001	inactive: 0.053	inactive: 0.043	inactive: 0.015	inactive: 0.036

(continued)

Target | log2 fold change (lapatinib) | log2 fold change (pictilisib) | log2 fold change (crizotinib) | log2 fold change [1] | log2 fold change (duvelisib) | log2 fold change (gandotinib) | log2 fold change (tozasertib) | log2 fold change (doramapimod) | log2 fold change (bafetinib) | log2 fold change [2]
SAFB isoform 3 (UniProt Q15424) | inactive: -0.006 | inactive: 0.008 | inactive: -0.002 | inactive: -0.075 | inactive: -0.011 | inactive: 0.065 | inactive: 0.009 | inactive: -0.011 | inactive: -0.016 | inactive: 0.016
SAR1A (UniProt Q9NR31) | inactive: 0.101 | inactive: 0.191 | inactive: -0.056 | inactive: 0.033 | inactive: 0.002 | inactive: 0.341 | inactive: 0.027 | active: 0.504 | inactive: -0.022 | inactive: 0.156
SDHA (UniProt P31040) | inactive: 0.004 | inactive: -0.011 | inactive: -0.008 | inactive: -0.004 | inactive: 0.013 | inactive: 0.03 | inactive: 0.006 | inactive: 0.024 | inactive: 0.026 | inactive: -0.017
SEC23IP (UniProt Q9Y6Y8) | inactive: -0.004 | inactive: -0.017 | inactive: -0.067 | inactive: 0.036 | inactive: -0.011 | inactive: -0.105 | inactive: -0.01 | inactive: 0.024 | inactive: -0.013 | inactive: -0.018
SEPTIN11 isoform 2 (UniProt Q9NVA2) | inactive: 0.017 | inactive: 0.006 | inactive: 0.044 | inactive: 0.01 | inactive: 0.03 | inactive: 0 | inactive: -0.021 | inactive: -0.015 | inactive: 0.037 | inactive: -0.026
SCARB2 (UniProt Q14108) | inactive: 0.002 | inactive: -0.026 | inactive: 0.034 | inactive: 0.106 | inactive: 0.052 | inactive: -0.05 | inactive: 0.036 | inactive: -0.015 | inactive: 0.004 | inactive: -0.085
SELENOF (UniProt O60613) | inactive: -0.013 | inactive: 0.025 | inactive: 0 | inactive: 0.016 | inactive: 0.02 | inactive: 0.017 | inactive: -0.023 | inactive: -0.002 | inactive: -0.052 | inactive: -0.031
SART1 (UniProt O43290) | inactive: 0.014 | inactive: 0.015 | inactive: 0 | inactive: -0.024 | inactive: 0 | inactive: 0.025 | inactive: -0.016 | inactive: 0.02 | inactive: -0.046 | inactive: 0.029
SEC11A (UniProt P67812) | inactive: -0.039 | inactive: -0.017 | inactive: -0.031 | inactive: 0 | inactive: 0.035 | inactive: -0.032 | inactive: 0.031 | inactive: 0.057 | inactive: -0.078 | inactive: 0.064
SELENOT (UniProt P62341) | inactive: 0.016 | inactive: -0.216 | inactive: 0.014 | inactive: -0.019 | inactive: 0.031 | inactive: 0.071 | inactive: 0.022 | inactive: -0.018 | inactive: -0.195 | inactive: 0.029
SEC61A2 (UniProt Q9H9S3) | inactive: -0.067 | inactive: -0.005 | inactive: -0.008 | inactive: -0.181 | inactive: -0.038 | inactive: 0.053 | inactive: -0.024 | inactive: 0 | inactive: -0.037 | inactive: 0.061
SAR1B (UniProt Q9Y6B6) | inactive: 0.122 | inactive: 0.036 | inactive: -0.056 | inactive: -0.031 | inactive: 0.004 | active: 0.44 | inactive: -0.005 | active: 0.578 | inactive: -0.079 | inactive: 0.08
SCYL1 (UniProt Q96KG9) | inactive: 0.054 | inactive: 0.007 | inactive: 0.016 | inactive: -0.007 | inactive: -0.021 | inactive: 0.069 | inactive: 0.012 | inactive: 0.128 | inactive: -0.018 | inactive: 0.011
SELENOH (UniProt Q8IZQ5) | inactive: -0.042 | inactive: -0.02 | inactive: -0.001 | inactive: 0.193 | inactive: -0.004 | inactive: -0.036 | inactive: -0.03 | inactive: 0.006 | inactive: -0.035 | inactive: -0.069
SCAF8 (UniProt Q9UPN6) | inactive: -0.018 | inactive: -0.049 | inactive: -0.02 | inactive: -0.011 | inactive: -0.037 | inactive: -0.117 | inactive: -0.015 | inactive: 0.001 | inactive: -0.031 | inactive: 0.039
